Reference: PMC5062938, “Variation in ligand responses of the bitter taste receptors TAS2R1 and TAS2R4 among New World monkeys” (BMC Evolutionary Biology, 2016)

Compound: COc1cc2c(c(OC)c1OC)-c1ccc(OC)c(=O)cc1[C@@H](NC(C)=O)CC2 [colchicine]
- EC50 (TAS2R4 (marmoset)): 67 µM
- EC50 (TAS2R4 (howler monkey)): 80 µM
